# Screening data, single-dose tests

Amino acid sequences for entries named in this document (tags omitted). Residues count along the entry.
UniProt P9WPC5, whole entry: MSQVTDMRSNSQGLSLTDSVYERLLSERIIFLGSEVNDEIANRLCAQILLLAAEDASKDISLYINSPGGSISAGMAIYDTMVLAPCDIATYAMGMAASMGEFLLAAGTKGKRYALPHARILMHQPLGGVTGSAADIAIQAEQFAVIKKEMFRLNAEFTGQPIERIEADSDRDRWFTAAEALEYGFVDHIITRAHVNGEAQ
UniProt P9WPC3, whole entry partner: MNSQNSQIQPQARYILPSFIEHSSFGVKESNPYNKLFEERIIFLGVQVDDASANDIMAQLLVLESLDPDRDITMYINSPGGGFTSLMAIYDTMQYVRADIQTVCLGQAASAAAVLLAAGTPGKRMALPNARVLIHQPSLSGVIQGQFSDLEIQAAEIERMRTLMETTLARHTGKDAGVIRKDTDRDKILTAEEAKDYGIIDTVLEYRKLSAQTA
UniProt Q4DA54, 1-478: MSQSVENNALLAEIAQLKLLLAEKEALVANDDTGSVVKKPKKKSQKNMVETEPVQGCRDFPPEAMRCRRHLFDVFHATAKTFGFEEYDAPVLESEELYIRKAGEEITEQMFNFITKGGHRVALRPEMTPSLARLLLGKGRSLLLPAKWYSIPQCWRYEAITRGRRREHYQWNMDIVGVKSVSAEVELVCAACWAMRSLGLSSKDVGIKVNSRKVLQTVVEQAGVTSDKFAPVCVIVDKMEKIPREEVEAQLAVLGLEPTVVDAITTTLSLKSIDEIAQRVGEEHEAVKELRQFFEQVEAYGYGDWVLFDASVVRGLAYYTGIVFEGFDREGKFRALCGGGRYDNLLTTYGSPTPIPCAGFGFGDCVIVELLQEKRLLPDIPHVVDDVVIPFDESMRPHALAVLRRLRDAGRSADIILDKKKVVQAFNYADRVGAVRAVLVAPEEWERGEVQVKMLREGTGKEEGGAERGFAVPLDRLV
UniProt Q8IDJ8, 1-583: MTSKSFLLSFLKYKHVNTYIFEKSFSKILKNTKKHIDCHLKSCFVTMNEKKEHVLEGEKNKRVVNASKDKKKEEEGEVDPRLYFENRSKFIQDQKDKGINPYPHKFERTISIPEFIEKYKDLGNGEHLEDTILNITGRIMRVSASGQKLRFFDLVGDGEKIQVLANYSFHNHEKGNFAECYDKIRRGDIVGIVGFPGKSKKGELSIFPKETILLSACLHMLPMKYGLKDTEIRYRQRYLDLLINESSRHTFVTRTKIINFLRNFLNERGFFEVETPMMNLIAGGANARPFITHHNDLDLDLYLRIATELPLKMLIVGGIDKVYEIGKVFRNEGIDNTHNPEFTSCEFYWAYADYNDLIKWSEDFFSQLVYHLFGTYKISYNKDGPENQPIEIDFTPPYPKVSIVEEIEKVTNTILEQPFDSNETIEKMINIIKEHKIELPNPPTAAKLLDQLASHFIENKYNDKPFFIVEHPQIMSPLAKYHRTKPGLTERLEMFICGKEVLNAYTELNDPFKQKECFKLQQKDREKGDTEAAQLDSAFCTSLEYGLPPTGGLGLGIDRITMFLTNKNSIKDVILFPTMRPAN
UniProt I6X8D2, whole entry: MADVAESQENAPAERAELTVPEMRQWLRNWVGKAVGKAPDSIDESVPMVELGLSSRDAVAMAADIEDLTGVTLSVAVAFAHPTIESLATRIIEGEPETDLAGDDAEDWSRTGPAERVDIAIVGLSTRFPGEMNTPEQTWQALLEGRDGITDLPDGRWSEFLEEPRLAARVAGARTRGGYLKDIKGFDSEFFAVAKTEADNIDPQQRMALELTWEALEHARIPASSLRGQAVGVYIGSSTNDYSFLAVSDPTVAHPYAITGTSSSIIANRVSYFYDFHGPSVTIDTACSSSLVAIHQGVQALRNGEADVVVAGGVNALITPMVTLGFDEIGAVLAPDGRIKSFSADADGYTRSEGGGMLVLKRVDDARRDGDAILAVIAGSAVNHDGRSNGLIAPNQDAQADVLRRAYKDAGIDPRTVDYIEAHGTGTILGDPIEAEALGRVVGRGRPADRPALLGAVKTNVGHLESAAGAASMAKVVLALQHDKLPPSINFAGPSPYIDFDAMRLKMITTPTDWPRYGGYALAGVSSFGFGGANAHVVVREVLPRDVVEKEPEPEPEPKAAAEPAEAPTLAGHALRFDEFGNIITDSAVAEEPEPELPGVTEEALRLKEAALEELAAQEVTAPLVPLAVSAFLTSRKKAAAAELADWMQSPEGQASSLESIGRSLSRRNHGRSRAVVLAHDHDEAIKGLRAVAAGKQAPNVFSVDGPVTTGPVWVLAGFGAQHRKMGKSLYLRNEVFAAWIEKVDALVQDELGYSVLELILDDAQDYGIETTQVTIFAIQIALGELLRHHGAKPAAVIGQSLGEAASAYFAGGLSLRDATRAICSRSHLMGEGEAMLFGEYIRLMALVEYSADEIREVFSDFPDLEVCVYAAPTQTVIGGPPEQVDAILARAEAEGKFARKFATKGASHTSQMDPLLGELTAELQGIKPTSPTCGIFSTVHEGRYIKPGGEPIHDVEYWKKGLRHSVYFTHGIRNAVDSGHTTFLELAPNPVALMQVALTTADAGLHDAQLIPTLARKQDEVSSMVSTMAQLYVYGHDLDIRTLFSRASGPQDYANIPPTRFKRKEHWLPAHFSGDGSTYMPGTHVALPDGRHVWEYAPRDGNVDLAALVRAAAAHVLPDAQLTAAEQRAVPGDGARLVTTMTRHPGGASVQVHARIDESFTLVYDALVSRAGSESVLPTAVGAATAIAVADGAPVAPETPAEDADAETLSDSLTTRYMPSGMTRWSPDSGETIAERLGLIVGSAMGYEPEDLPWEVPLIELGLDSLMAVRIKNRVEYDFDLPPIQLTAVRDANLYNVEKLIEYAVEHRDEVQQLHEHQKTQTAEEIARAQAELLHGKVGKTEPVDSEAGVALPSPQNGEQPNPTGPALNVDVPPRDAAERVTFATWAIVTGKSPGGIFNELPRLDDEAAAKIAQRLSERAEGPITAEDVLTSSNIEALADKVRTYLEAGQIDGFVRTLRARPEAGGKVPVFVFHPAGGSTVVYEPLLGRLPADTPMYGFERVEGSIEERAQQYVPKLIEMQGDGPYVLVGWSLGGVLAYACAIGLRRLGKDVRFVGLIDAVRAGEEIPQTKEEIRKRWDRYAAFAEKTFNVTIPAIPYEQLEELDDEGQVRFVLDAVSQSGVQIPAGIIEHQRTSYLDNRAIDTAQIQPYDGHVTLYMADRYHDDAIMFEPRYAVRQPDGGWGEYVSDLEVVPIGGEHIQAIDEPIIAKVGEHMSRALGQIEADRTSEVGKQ

ClpP1P2: 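Protease assay of ClpP1P2, read by the AMC dye that it sets free. Target: ClpP1P2, Mycobacterium tuberculosis (UniProt P9WPC5 and UniProt P9WPC3). Concentration: 50 µM. Higher reads as stronger inhibition, judged from the few compounds that gave an IC50. Most other retested compounds had strongly negative values. Of about 69,000 compounds tested this way, about 10 (0.015%) reached 50% or more in at least one test.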
TcHisRS: 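Histidine-tRNA ligase, Trypanosoma cruzi CL Brener (UniProt Q4DA54). Enzyme assay of histidyl-tRNA synthetase; the read-out is not stated. Compounds at 30 µM. Direction is inferred from retests: higher values go with stronger inhibition. Of about 69,000 compounds tested this way, about 31 (0.045%) reached 50% or more in at least one test.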
PfKRS1: 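Enzyme assay of the cytosolic lysyl-tRNA synthetase in 384-well plates, read by luminescence. Target: Lysine-tRNA ligase, Plasmodium falciparum 3D7 (UniProt Q8IDJ8). Concentration: 30 µM. Higher reads as stronger inhibition, judged from the few compounds that gave an IC50. Size under these conditions: about 69,000 compounds, about 49 of them at 50% or above in at least one test.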
Pks13 thioesterase: 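Polyketide synthase Pks13, Mycobacterium tuberculosis (UniProt I6X8D2). Enzyme assay of the thioesterase domain of polyketide synthase 13; the read-out is not stated. Compounds at 30 µM. The record gives no direction; the compounds picked for IC50 retests had high values, so higher reads as stronger inhibition. Size under these conditions: about 67,000 compounds, about 300 of them at 50% or above in at least one test.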

Each number is a percent effect as filed. The record does not define 0% and 100%; most values in the screen are far below 50% and negative numbers occur (in some assays of this library far below -100). This is an unselected part of the compounds tested. A dash means the value is not listed here; it may have been measured.

| structure | ClpP1P2 | TcHisRS | PfKRS1 | Pks13 thioesterase |
|---|---|---|---|---|
| `Cc1noc(C)c1S(=O)(=O)N(C)Cc1nn(C)c(Cl)c1Cl` | -11.84 | -0.5291 | -1.672 | 8.699 |
| `Cc1cc(C(N)=O)ccc1NC(=O)N1CCN(c2cccs2)CC1` | -5.706 | 8.333 | 4.396 | 9.031 |
| `CCC(CNC(=O)c1cncc(Br)c1)N1CCc2ccccc2C1` (centres unmarked) | -2.889 | 3.941 | 8.249 | -19.32 |
| `Cn1cc(N2C(=O)CC[C@@H]3[C@H]2CCN3Cc2nccs2)cn1` | -9.003 | -0.9524 | 3.232 | -5.756 |
| `CN(C)C(=O)C1(c2cnccn2)CCCN1C(=O)Cc1ccccc1` (centres unmarked) | 4.891 | 5.303 | -0.7968 | 3.938 |
| `CN(C)C(=O)N1CCN(C(=O)c2cccc(Cl)c2)CC2(CNC(=O)C2)C1` (centres unmarked) | 12.72 | 8.046 | 12.18 | -9.268 |
| `COc1ccc(OC)c(C(=O)Nc2cccnc2-n2cncn2)c1` | -5.095 | 10.3 | 0.3988 | -25.55 |
| `CCCC(C#N)NC(=O)COC1CCCCC1` (centres unmarked) | -9.761 | -3.03 | 1.767 | 15.85 |
| `Cc1ccc2c(c1)c(C)cc(=O)n2CC(=O)O` | -0.6046 | 8.333 | 0.09959 | -8.357 |
| `O=C(Nc1ccc(Cl)cc1C(=O)NCCN1CCOCC1)c1ccco1` | -21.38 | 1.88 | 0.9916 | -15.51 |
| `c1cc2cc[nH]c2c(CC2CN(Cc3cncs3)C2)n1` | -4.503 | 10.08 | -1.001 | 6.495 |
| `Cc1cc(C)nc(Nc2cncc(C3CCCN(S(C)(=O)=O)C3)n2)n1` (centres unmarked) | 19.11 | 0 | -0.9152 | -26.82 |
| `C=C(C)Cn1c(=O)nc(N)c2c(-c3ccc(OC)cc3)csc21` | -18.1 | -0.5848 | 1.285 | -25.34 |
| `COCCC(=O)N(C)Cc1nc(C(F)(F)F)cs1` | -10.54 | -2.02 | -3.848 | 3.221 |
| `CCN1C[C@H]2CCN(Cc3ccncc3)C(=O)[C@@H]2C1` | -1.34 | -0.9709 | 1.15 | -20.84 |
| `Cc1nc(-c2cncnc2C2CCCNC2)no1` (centres unmarked) | 6.947 | 3.03 | 3.326 | -19.11 |
| `Cc1cc2n(n1)CC(CNCc1ccc(N3CCOCC3)nc1)CN2` (centres unmarked) | -25.45 | 4.142 | -1.475 | -3.989 |
| `Cc1cccc(NC(=O)CNC(=O)c2ccccc2F)c1` | 7.504 | 4.459 | -0.2954 | -6.961 |
| `CCOC(=O)C1CCN(C(=O)CN2CCCC2c2ccccc2C)CC1` (centres unmarked) | -10.96 | 8.374 | -0.1588 | -27.41 |
| `Cn1cccc1C(=O)N1CCc2ncc(Cn3cccn3)n2CC1` | -2.919 | 3.784 | -3.583 | - |
| `Cc1nc(C)n(CC2CN(c3ncccn3)Cc3nccn3C2)n1` (centres unmarked) | 0.6571 | 5.932 | 6.08 | -4.943 |
| `COCC(=O)N[C@H]1C[C@@H](Cc2cc(CN3CCCCC3)on2)C1(C)C` | 10.07 | -13.43 | -7.725 | - |
| `Cc1cc(C)n(CCNCc2cc(-c3ccc(Cl)cc3)c[nH]c2=O)n1` | -21.15 | -0.8571 | -0.1283 | -8.514 |
| `Cc1cc(CN(CC(N)=O)CC(C)C)on1` | 8.595 | -1.235 | 2.725 | -12.97 |
| `Oc1ccccc1-c1n[nH]c(C2CCCO2)n1` (centres unmarked) | 10.8 | -2.232 | 0.8945 | 8.244 |
| `CCn1nccc1CN(C)C(=O)Cn1nc(C)cc1C` | 0.07643 | -9.579 | -0.3559 | -20.08 |
| `COCCN(Cc1ccc(C)cc1)CC1CCOC1` (centres unmarked) | -13.41 | 0.5525 | 2.847 | -26.79 |
| `O=C1CC[C@H]2[C@H](CCN2C(=O)C2CCCO2)N1Cc1cccnc1` (some centres unmarked) | -4.832 | 7.317 | 0.787 | 2.42 |
| `CC(=O)NCCC1CCN(c2nc(C(C)(C)C)nc3c2cnn3C)CC1` | -3.114 | 9.877 | -0.3935 | -2.074 |
| `CC(C)CNC(=O)c1cn(C(C)C)cc2c(=O)[nH]nc1-2` | -0.5276 | 9 | 6.039 | 22.35 |
| `CC(C)(C)S(=O)(=O)c1ccc(N2CCN(c3ccccn3)CC2)nn1` | 12.23 | -1.031 | 0.4866 | -29.71 |
| `Cn1c(NCC(O)c2ccc(F)cc2)c(C#N)c(=O)n(C)c1=O` (centres unmarked) | -18.76 | 6.286 | 1.75 | -1.519 |
| `Cc1nc(-c2cccnc2)ncc1C(=O)N1CCC(C(C)N(C)C)CC1` (centres unmarked) | -4.826 | 4.819 | 1.65 | -7.293 |
| `CC(c1ncc(C(C)(C)C)o1)N1CCN(c2ccncc2)CC1` (centres unmarked) | -8.615 | -3.797 | -2.019 | -25.11 |
| `Cc1cc(C(=O)N2CCO[C@H]3[C@H](OCCN(C)C)CC[C@@H]32)c(C)[nH]1` | -11.98 | 0.9346 | 1.852 | 7.589 |
| `COc1ccccc1CN(C)C(=O)CN1C(=O)OC[C@@H]1c1ccccc1` | -9.922 | -0.6024 | -3.206 | -14.24 |
| `CC(C)n1nnc2c(sc3nc(N4CCOCC4)c4c(c32)CCC4)c1=O` | -34.15 | 2.97 | -0.7322 | -4.975 |
| `Cc1cc(=O)[nH]c(SCC(=O)N(C)CC2Cc3ccccc3CN2C)n1` (centres unmarked) | 2.671 | 2.542 | 5.546 | -15.07 |
| `CC(C)=CCN1CCN(Cc2cc(C)n[nH]2)CC1CCO` (centres unmarked) | 10.97 | 2.128 | -0.3509 | 4.117 |
| `O=C1COC2(CCN(CC3CC3)CC2)CN1c1ccsc1` | -6.009 | 1.961 | 1.097 | -7.148 |
| `O=C(c1cc2c(s1)CCOC2)N1CCCC1Cn1cccn1` (centres unmarked) | -29.63 | 2.89 | 0.4525 | -3.802 |
| `Cc1ccccc1OC1CCN(S(=O)(=O)c2c(C)n[nH]c2C)CC1` | -10.21 | 4.615 | 4.01 | 9.141 |
| `CNC(=O)C(C)S(=O)(=O)Cc1csc(-c2cccs2)n1` (centres unmarked) | -0.06537 | 5.882 | 3.644 | - |
| `CC(C)(C)OC(=O)N1CCCc2ccc(NCc3cc[nH]c3)cc21` | -4.543 | 5.357 | 0.04676 | -8.025 |
| `CCCN1CCC(NN2CCN(C)CC2)CC1` | -0.03354 | 6.806 | -0.8277 | -17.68 |

The first 5 entries again:

{"structure": "Cc1noc(C)c1S(=O)(=O)N(C)Cc1nn(C)c(Cl)c1Cl", "ClpP1P2": -11.84, "TcHisRS": -0.5291, "PfKRS1": -1.672, "Pks13 thioesterase": 8.699}
{"structure": "Cc1cc(C(N)=O)ccc1NC(=O)N1CCN(c2cccs2)CC1", "ClpP1P2": -5.706, "TcHisRS": 8.333, "PfKRS1": 4.396, "Pks13 thioesterase": 9.031}
{"structure": "CCC(CNC(=O)c1cncc(Br)c1)N1CCc2ccccc2C1", "stereo": "centres unmarked", "ClpP1P2": -2.889, "TcHisRS": 3.941, "PfKRS1": 8.249, "Pks13 thioesterase": -19.32}
{"structure": "Cn1cc(N2C(=O)CC[C@@H]3[C@H]2CCN3Cc2nccs2)cn1", "ClpP1P2": -9.003, "TcHisRS": -0.9524, "PfKRS1": 3.232, "Pks13 thioesterase": -5.756}
{"structure": "CN(C)C(=O)C1(c2cnccn2)CCCN1C(=O)Cc1ccccc1", "stereo": "centres unmarked", "ClpP1P2": 4.891, "TcHisRS": 5.303, "PfKRS1": -0.7968, "Pks13 thioesterase": 3.938}

Source: ChEMBL document CHEMBL3988442, “University of Dundee, Small-Polar-MMV Screening Library” (2021).